Data on three molecules can be found in PMC11476584.

Chains of the proteins cited; added tags and fusions are not shown. Residues count along the entry.
UniProt P02649, residues 19-317: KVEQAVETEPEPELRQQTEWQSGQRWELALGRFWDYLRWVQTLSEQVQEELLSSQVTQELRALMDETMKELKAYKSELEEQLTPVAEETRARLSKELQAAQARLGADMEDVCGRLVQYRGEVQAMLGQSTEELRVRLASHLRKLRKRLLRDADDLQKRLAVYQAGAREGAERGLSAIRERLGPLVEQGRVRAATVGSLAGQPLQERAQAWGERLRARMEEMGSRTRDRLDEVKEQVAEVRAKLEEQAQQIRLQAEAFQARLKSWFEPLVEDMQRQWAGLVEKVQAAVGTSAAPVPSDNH
UniProt P21796: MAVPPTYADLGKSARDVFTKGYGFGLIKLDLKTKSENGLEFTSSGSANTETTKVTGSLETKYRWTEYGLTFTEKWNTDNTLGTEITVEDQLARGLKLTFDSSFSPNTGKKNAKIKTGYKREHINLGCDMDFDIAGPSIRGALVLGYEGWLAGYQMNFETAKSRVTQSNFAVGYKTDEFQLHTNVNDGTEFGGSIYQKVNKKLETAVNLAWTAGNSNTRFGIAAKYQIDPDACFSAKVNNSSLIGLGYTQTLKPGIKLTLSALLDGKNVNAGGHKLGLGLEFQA

No constants are given. Whether binding was seen depends on the method and setting. In cells and extracts the contact can be indirect. These calls come from enrichment with a bait or labelling near it, and not all partners need be listed.

To fix the notation:
B1: Mitochondrial import receptor subunit TOM40 (TOMM40) (protein, UniProt O96008 1-361)
chain: MGNVLAASSPPAGPPPPPAPALVGLPPPPPSPPGFTLPPLGGSLGAGTSTSRSSERTPGAATASASGAAEDGACGCLPNPGTFEECHRKCKELFPIQMEGVKLTVNKGLSNHFQVNHTVALSTIGESNYHFGVTYVGTKQLSPTEAFPVLVGDMDNSGSLNAQVIHQLGPGLRSKMAIQTQQSKFVNWQVDGEYRGSDFTAAVTLGNPDVLVGSGILVAHYLQSITPCLALGGELVYHRRPGEEGTVMSLAGKYTLNNWLATVTLGQAGMHATYYHKASDQLQVGVEFEASTRMQDTSVSFGYQLDLPKANLLFKGSVDSNWIVGATLEKKLPPLPLTLALGAFLNHRKNKFQCGFGLTIG
B2: Lon protease (LONP1) (enzyme, UniProt P36776 68-959)
chain: FWEASSRGGGAFSGGEDASEGGAEEGAGGAGGSAGAGEGPVITALTPMTIPDVFPHLPLIAITRNPVFPRFIKIIEVKNKKLVELLRRKVRLAQPYVGVFLKRDDSNESDVVESLDEIYHTGTFAQIHEMQDLGDKLRMIVMGHRRVHISRQLEVEPEEPEAENKHKPRRKSKRGKKEAEDELSARHPAELAMEPTPELPAEVLMVEVENVVHEDFQVTEEVKALTAEIVKTIRDIIALNPLYRESVLQMMQAGQRVVDNPIYLSDMGAALTGAESHELQDVLEETNIPKRLYKALSLLKKEFELSKLQQRLGREVEEKIKQTHRKYLLQEQLKIIKKELGLEKDDKDAIEEKFRERLKELVVPKHVMDVVDEELSKLGLLDNHSSEFNVTRNYLDWLTSIPWGKYSNENLDLARAQAVLEEDHYGMEDVKKRILEFIAVSQLRGSTQGKILCFYGPPGVGKTSIARSIARALNREYFRFSVGGMTDVAEIKGHRRTYVGAMPGKIIQCLKKTKTENPLILIDEVDKIGRGYQGDPSSALLELLDPEQNANFLDHYLDVPVDLSKVLFICTANVTDTIPEPLRDRMEMINVSGYVAQEKLAIAERYLVPQARALCGLDESKAKLSSDVLTLLIKQYCRESGVRNLQKQVEKVLRKSAYKIVSGEAESVEVTPENLQDFVGKPVFTVERMYDVTPPGVVMGLAWTAMGGSTLFVETSLRRPQDKDAKGDKDGSLEVTGQLGEVMKESARIAYTFARAFLMQHAPANDYLVTSHIHLHVPEGATPKDGPSAGCTIVTALLSLAMGRPVRQNLAMTGEVSLTGKILPVGGIKEKTIAAKRAGVTCIVLPAENKKDFYDLAAFITEGLEVHFVEHYREIFDIAFPDEQAEALAVER

This test concerns the target Apolipoprotein E3 (APOE3), overexpressed in transfected Huh7 cells (human) (UniProt P02649). Nature of the test: affinity purification with mass spectrometry; APOE precipitated with anti-APOE antibody (sc-13521) and Protein G Sepharose, overnight at 4 °C, from lysates of unmodified, mock-, APOE3- and APOE4-transfected Huh7 cells; hits significant and at least twofold more abundant, compared with unmodified cells.
As for “Voltage-dependent anion-selective channel 1 (VDAC1) (from UniProt P21796 1-283)”, the binding entry was “binds”.
Consider B1, for which the binding result is listed as “binds”.
The entry for B2 is “binds”.
